In patent publication US4220577A, “Iodopropargyl pyridyl and picolinyl ethers and thioethers as paint fungicides” (Givaudan Corporation, priority 1979, dated 1980):
The name of at least one read-out is uncertain.

Columns and labels:
[1] = test system: Aureobasidium pullulans (strain 1); test: Antifungal activity on painted surfaces, strain 1; format: cell-based; parameters: key: 0: no zone; 1-5 mm; 2: 6-10 mm; 3: 11-15 mm; 4: 16-20 mm; 5: >20 mm; conditions: 0.25% in vinyl acetate latex paint, Strain 1, three weeks
Protocol: Any antifungal agent which can be used to prevent mildew on painted surfaces must be effective against Aureobasidium pullulans, the organism which is primarily responsible for mildew on painted surfaces. The effectiveness of the novel compounds was tested by incorporating the compound into an exterior latex paint, applying the paint to a surface, and testing the ability of the painted surface to prevent the growth of Aureobasidium pullulans. The tests were run as described below. The novel compounds were incorporated into an exterior vinyl acetate latex paint by mulling the compound into the paint. The compounds were tested in the paints at levels of 0.25% and 0.5%. One coat of this paint was applied to each side of a piece of Whatman #30 filter paper. Two one-inch squares were cut from the filter paper. Each square was centered on the agar surface of separate Petri dishes containing malt agar. One square was inoculated with a suspension of Aureobasidium pullulans (strain 1) which was an in-house strain used for routine antimicrobial testing. The second square was inoculated with a suspension of Aureobasidium pullulans (strain 2) which was grown from a culture obtained from the surface of a mildew infested panel. Squares painted with the same exterior vinyl acetate latex paint, but without the novel compounds of this invention, were run in parallel. […]

[2] = test system: Aureobasidium pullulans (strain 2); test: Antifungal activity of painted birch blades after exposure to heat and light; format: cell-based; parameters: key: 0: no zone; 1-5 mm; 2: 6-10 mm; 3: 11-15 mm; 4: 16-20 mm; 5: >20 mm; conditions: after light (300-400 nm) and heat (40° C.) four weeks
Protocol: Successful paint fungicides must be stable when exposed to the elements such as heat and light. Such stability was tested in the laboratory by exposing painted sticks to heat and light. The compounds of this invention were incorporated into an exterior vinyl acetate latex paint as described in Example XXI. Birch blades (tongue depressors) were painted (two coats) and continuously exposed to light (wavelength 300-400 nm) and heat (40° C.) for four consecutive weeks. At the end of the exposure time, one-inch squares of the painted birch blades were cut and tested according to the procedure of Example XXI, using strain 2.

Structure (SMILES) | Zone of Inhibition [1] | Zone of Inhibition ([2]; 0.25%) | Zone of Inhibition ([2]; 0.5%)
Nc1ncccc1OCC#CI [drawing 14] | 0 | – | –
IC#CCSc1ccncc1 [drawing 18] | 0 | – | –
IC#CCOc1cccnc1 [drawing 19] | – | 0 | –
Cc1ccc(OCC#CI)cn1 [drawing 20] | – | 0 | –
Clc1ncccc1OCC#CI [drawing 21] | – | 0 | –
Cc1ccc(OCC#CI)c(Cl)n1 [drawing 22] | – | – | 0
Nc1ncccc1OCC#CI [drawing 23] | – | 0 | 0
IC#CCSc1cccnc1 [drawing 24] | – | 0 | 0
IC#CCOCc1cccnc1 [drawing 25] | – | 0 | –
IC#CCOc1ccncc1 [drawing 26] | – | 0 | 0
IC#CCOc1ccccc1 [reference compound] | – | 0 | 0
